Results from patent US20120263730A1.
Results are given in words; binding and its absence hold for the method and conditions named. Binding calls can cover weak binding; strength is not graded here. Sequences can lack the tags named with a protein.

Sequences of proteins named here, by UniProt entry; tags and fusion partners are left off. A change or cut given only in a name is not applied to a line headed by its entry.
UniProt P51654: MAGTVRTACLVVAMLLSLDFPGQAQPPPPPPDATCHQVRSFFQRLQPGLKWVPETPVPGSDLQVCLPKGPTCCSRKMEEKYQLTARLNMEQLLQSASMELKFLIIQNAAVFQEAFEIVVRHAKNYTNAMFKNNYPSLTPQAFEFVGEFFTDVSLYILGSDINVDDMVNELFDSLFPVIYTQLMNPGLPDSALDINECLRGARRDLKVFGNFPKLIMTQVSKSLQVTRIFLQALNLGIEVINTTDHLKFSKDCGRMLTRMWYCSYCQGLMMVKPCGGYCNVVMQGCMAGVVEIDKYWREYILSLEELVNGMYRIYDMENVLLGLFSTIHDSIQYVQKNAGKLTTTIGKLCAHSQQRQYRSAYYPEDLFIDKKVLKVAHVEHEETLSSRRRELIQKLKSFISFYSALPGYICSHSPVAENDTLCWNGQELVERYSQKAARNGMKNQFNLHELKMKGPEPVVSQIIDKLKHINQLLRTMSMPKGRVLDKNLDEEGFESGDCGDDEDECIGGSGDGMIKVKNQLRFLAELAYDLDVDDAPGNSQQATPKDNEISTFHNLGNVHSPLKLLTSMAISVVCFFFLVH

Legend:
human Glypican-3 (human) = human Glypican-3 (human) (UniProt P51654); test: cell surface binding, AP fusion on transfected HEK293T cells
Frizzled5 = test: cell surface binding, V5-tagged Wnt5a on transfected HEK293T cells

| binding (human Glypican-3 (human)) | binding (Frizzled5) | Binder |
| --- | --- | --- |
| binds |  | hRspo3TSP-AP (signal peptide fused to the TSP domain aa146-209 of human Rspondin-3, followed by AP tag) (ligand, not shown: large carriers) VHCEVSEWNPWSPCTKKGKTCGFKRGTETRVREIIQHPSAKGNLCPPTNETRKCTVQRKKCQKG |
|  | binds | Wnt5aV5 (V5-tagged Wnt5a) (ligand, mouse, UniProt P22725 62-380, looked up, not shown: small tags and cut ends) IIGAQPLCSQLAGLSQGQKKLCHLYQDHMQYIGEGAKTGIKECQYQFRHRRWNCSTVDNTSVFGRVMQIGSRETAFTYAVSAAGVVNAMSRACREGELSTCGCSRAARPKDLPRDWLWGGCGDNIDYGYRFAKEFVDARERERIHAKGSYESARILMNLHNNEAGRRTVYNLADVACKCHGVSGSCSLKTCWLQLADFRKVGDALKEKYDSAAAMRLNSRGKLVQVNSRFNSPTTQDLVYIDPSPDYCVRNESTGSLGTQGRLCNKTSEGMDGCELMCCGRGYDQFKTVQTERCHCKFHWCCYVKCKKCTEIVDQFVCK |
